Measurements reported in PubChem BioAssay AID1259304 (Sanger Institute, 2017).
The deposit covers 160 reagents; this is an unselected part. In the full data, 88 (55%) were called active. 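Four siRNAs per gene, each called on its own in one cell line; calls are not confirmed gene-level hits.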 The numbers tell different reagents against one gene apart. No viability above 1 is reported: the scale is capped. Reagent sequences are not shown. Not stated in the record: the amount of reagent, the time to read-out.

Test: 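Kinase knock-downs that add to growth loss from colorectal cancer drugs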 (secondary deconvolution rescreen of primary hits)
Cell system: HT115 human colorectal cancer cells
Reagent: single siRNA against human genes
Challenge: anchor drugs BYL719 at 1 µM, cetuximab at 5 µg/ml or trametinib at 10 nM, each set against DMSO vehicle
Read-out: 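Replicate-averaged viability as a fraction of non-targeting control, with a drug-siRNA synergy score from joint versus separate effects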
Reading the numbers: synergy score with BYL719: higher = stronger synthetic lethal interaction with BYL719; synergy score with cetuximab: higher = stronger synthetic lethal interaction with cetuximab; synergy score with trametinib: higher = stronger synthetic lethal interaction with trametinib; viability, siRNA with trametinib and viability, siRNA with DMSO vehicle: higher = more cells surviving
Hit rule: 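Called active when the synergy score is above 0.10 for any of BYL719, cetuximab or trametinib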
Calls: active = synergy with at least one anchor drug; inactive = no synergy with any anchor drug

Target gene	siRNA no.	synergy score with BYL719	synergy score with cetuximab	synergy score with trametinib	viability, siRNA with trametinib (fraction of control)	viability, siRNA with DMSO vehicle (fraction of control)	Outcome
GTF2H1 (GeneID 2965)	1	-0.136	-0.059	-0.0268	0.671	0.661	inactive
GTF2H1 (GeneID 2965)	2	0.0188	0.085	-0.0254	1	1	inactive
GTF2H1 (GeneID 2965)	3	-0.206	-0.13	-0.0779	0.947	0.892	inactive
GTF2H1 (GeneID 2965)	4	0.12	0.177	0.202	0.539	0.76	active
PLK1 (GeneID 5347)	1	-0.0777	-0.0353	-0.0052	0.14	0.139	inactive
PLK1 (GeneID 5347)	2	0.011	0.00236	0.0258	0.132	0.162	inactive
PLK1 (GeneID 5347)	3	-0.0325	0.000146	-0.0149	0.139	0.127	inactive
PLK1 (GeneID 5347)	4	-0.0421	-0.0146	-0.00722	0.0919	0.0868	inactive
EPHA6 (GeneID 285220)	1	-0.0195	0.0161	0.106	0.53	0.653	active
EPHA6 (GeneID 285220)	2	0.101	-0.0702	0.0596	0.611	0.688	active
EPHA6 (GeneID 285220)	3	-0.145	-0.176	-0.0248	0.591	0.581	inactive
EPHA6 (GeneID 285220)	4	0.0272	-0.0121	0.273	0.701	1	active
KCNH8 (GeneID 131096)	1	-0.104	0.185	0.393	0.296	0.707	active
KCNH8 (GeneID 131096)	2	-0.000373	0.00787	0.169	0.284	0.465	active
KCNH8 (GeneID 131096)	3	-0.149	-0.00735	0.0165	0.829	0.867	inactive
KCNH8 (GeneID 131096)	4	-0.0309	0.0579	0.155	0.597	0.772	active
